Measurements published in paper PMC2936532.
Results are given in words; binding and its absence hold for the method and conditions named. Some results given as binding are weak or reduced against the parent protein; the word gives no strength. For part of these data: Sequences can lack the tags named with a protein.

Protein sequences, listed by entry. Tags and fused reporters are not part of them. Chains listed by the source or under a name are the forms on record and can include a tag or linker. Residues count along the entry.
UniProt Q94CL7, residues 199-409: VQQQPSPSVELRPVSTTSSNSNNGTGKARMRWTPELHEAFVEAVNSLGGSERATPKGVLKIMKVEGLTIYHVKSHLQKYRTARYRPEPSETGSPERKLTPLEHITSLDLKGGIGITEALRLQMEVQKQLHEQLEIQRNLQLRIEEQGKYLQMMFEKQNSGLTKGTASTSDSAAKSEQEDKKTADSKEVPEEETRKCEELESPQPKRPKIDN
Δ-PHR1, PHR1 deletion derivative encompassing amino acid residues 208-362, fused to the GAL4 DNA-binding domain (Q94CL7, residues 208-362): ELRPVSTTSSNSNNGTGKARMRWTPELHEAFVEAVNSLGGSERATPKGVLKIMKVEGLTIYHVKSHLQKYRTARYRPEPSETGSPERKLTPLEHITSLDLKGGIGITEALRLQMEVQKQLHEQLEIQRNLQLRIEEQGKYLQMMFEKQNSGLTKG

T1: medium-length N-terminally truncated PHL1 (PHR1-LIKE1) (Arabidopsis thaliana) (UniProt Q8GUN5)
T1 sequence: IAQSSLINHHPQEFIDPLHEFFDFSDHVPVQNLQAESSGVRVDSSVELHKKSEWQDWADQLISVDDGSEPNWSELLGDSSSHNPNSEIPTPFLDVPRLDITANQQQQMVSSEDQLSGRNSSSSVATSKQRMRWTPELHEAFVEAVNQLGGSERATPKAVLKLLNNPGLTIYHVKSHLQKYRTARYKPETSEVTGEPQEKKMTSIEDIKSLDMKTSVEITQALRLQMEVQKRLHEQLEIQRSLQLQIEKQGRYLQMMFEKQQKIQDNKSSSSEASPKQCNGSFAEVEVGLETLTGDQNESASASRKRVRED

B1: short N-terminally truncated PHL1 (PHR1-LIKE1) (domain or fragment, UniProt Q8GUN5 211-413)
chain: MVSSEDQLSGRNSSSSVATSKQRMRWTPELHEAFVEAVNQLGGSERATPKAVLKLLNNPGLTIYHVKSHLQKYRTARYKPETSEVTGEPQEKKMTSIEDIKSLDMKTSVEITQALRLQMEVQKRLHEQLEIQRSLQLQIEKQGRYLQMMFEKQQKIQDNKSSSSEASPKQCNGSFAEVEVGLETLTGDQNESASASRKRVRED
B2: medium-length N-terminally truncated PHL1 (PHR1-LIKE1) (domain or fragment, UniProt Q8GUN5 104-413)
chain: T1 sequence
B3: Δ-PHL1, PHL1 deletion lacking amino acid residues 1-60, fused to the Gal4 activation domain (domain or fragment, UniProt Q8GUN5 61-413)
chain: YLFPSSSGYCNVSAVLPHGRNLQNQPPVSTVPRDRLAMQDCPLIAQSSLINHHPQEFIDPLHEFFDFSDHVPVQNLQAESSGVRVDSSVELHKKSEWQDWADQLISVDDGSEPNWSELLGDSSSHNPNSEIPTPFLDVPRLDITANQQQQMVSSEDQLSGRNSSSSVATSKQRMRWTPELHEAFVEAVNQLGGSERATPKAVLKLLNNPGLTIYHVKSHLQKYRTARYKPETSEVTGEPQEKKMTSIEDIKSLDMKTSVEITQALRLQMEVQKRLHEQLEIQRSLQLQIEKQGRYLQMMFEKQQKIQDNKSSSSEASPKQCNGSFAEVEVGLETLTGDQNESASASRKRVRED

How the values were obtained:
[1] = biological target: short N-terminally truncated PHR1 (PHOSPHATE STARVATION RESPONSE REGULATOR 1) (Arabidopsis thaliana) (UniProt Q94CL7); test: native gel or EMSA; truncated proteins translated in vitro alone or cotranslated, EMSA with a probe holding the PHR1 binding sequence P1BS; dimers read from bands of intermediate mobility of the protein-DNA complexes; mock translation mixture as control
[2] = biological target: T1, medium-length N-terminally truncated PHL1 (PHR1-LIKE1) (Arabidopsis thaliana); test: as above
[3] = biological target: short N-terminally truncated PHL1 (PHR1-LIKE1) (Arabidopsis thaliana) (UniProt Q8GUN5); test: as above
[4] = biological target: Δ-PHR1, PHR1 deletion derivative encompassing amino acid residues 208-362, fused to the GAL4 DNA-binding domain (Arabidopsis thaliana) (UniProt Q94CL7); test: two-hybrid; Gal4 system in S. cerevisiae AH109; BD-ΔPHR1 (pGBKT7) as bait in a screen of a whole seedling cDNA library in pGADT7, confirmed by cotransformation; read on -Trp -Leu medium plus β-gal and on medium lacking Ade, His, Leu and Trp; 30°C, 2-4 days; empty pGADT7 as negative control

| Molecule | binding [1] | binding [2] | binding [3] | binding [4] |
| --- | --- | --- | --- | --- |
| short N-terminally truncated PHR1 (PHOSPHATE STARVATION RESPONSE REGULATOR 1) (from UniProt Q94CL7 199-409) (domain or fragment) | binds | binds |  |  |
| B1 |  | binds | binds |  |
| B2 |  | binds |  |  |
| B3 |  |  |  | binds |
